Results are given in words; binding and its absence hold for the method and conditions named. Binding seen in cells or lysates may run through a third protein. Some results given as binding are weak or reduced against the parent protein; the word gives no strength.
Tests used:
[1] = molecular target: IMPORTIN-α2:GFP (Arabidopsis thaliana) (UniProt F4JL11); test: co-IP; GFP-tagged importin-α (or YFP) and RFP-tagged protein co-expressed in N. benthamiana, 72 h; leaf extract in 50 mM Tris, 150 mM NaCl, 10% glycerol, 1 mM EDTA, 5 mM DTT, pH 7.5; precipitated with α-GFP-nanobody:Halo:His6 magnetic beads, 2 h at 4°C; α-RFP western blot
[2] = molecular target: IMPORTIN-α4:GFP (Arabidopsis thaliana) (UniProt O80480); test: as above

The chains behind the UniProt entries cited, without tags or fusion partners. Residues count along the entry.
UniProt F4JL11: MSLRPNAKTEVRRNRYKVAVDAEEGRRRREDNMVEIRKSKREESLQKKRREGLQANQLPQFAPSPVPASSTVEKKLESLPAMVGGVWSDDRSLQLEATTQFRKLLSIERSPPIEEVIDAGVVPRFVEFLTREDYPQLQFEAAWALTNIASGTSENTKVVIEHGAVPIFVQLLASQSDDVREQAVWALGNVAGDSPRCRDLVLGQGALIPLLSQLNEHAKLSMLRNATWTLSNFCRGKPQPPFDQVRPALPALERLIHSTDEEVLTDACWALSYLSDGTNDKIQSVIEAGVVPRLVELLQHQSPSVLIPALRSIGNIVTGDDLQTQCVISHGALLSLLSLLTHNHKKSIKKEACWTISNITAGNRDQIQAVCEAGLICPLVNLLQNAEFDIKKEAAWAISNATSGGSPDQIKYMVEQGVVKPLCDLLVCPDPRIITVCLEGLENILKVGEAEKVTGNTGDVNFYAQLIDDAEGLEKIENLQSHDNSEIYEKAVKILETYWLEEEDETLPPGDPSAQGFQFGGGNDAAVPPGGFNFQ
UniProt O80480: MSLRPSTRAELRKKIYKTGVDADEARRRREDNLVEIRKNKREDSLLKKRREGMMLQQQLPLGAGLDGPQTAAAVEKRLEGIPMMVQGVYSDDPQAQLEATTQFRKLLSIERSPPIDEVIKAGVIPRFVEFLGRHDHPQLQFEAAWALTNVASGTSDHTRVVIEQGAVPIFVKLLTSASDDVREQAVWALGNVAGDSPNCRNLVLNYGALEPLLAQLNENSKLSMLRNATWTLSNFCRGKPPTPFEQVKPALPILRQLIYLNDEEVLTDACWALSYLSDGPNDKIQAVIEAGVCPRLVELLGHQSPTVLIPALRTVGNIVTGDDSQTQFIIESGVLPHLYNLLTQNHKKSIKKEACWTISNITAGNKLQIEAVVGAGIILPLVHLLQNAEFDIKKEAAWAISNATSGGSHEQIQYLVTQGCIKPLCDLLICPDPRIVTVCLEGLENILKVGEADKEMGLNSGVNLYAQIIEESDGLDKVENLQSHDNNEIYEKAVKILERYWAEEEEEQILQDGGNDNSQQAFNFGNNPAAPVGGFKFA
UniProt Q11207: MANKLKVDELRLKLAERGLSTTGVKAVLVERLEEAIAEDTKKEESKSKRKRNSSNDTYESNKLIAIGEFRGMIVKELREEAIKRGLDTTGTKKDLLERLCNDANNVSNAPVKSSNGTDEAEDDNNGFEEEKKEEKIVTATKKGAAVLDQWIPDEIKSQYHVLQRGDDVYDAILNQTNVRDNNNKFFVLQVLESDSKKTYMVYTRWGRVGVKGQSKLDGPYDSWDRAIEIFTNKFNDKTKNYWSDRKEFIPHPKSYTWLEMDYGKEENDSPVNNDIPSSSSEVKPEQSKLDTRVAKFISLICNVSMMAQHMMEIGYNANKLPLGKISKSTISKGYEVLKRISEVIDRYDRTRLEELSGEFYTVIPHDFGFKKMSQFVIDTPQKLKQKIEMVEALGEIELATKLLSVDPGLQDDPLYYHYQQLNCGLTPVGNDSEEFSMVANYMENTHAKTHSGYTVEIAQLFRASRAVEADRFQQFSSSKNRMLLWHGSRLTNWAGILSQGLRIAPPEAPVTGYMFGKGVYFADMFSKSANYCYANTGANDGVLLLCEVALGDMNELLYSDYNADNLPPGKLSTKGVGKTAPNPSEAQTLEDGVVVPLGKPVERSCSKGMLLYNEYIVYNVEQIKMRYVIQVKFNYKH
UniProt M4C4U1, residues 25-285: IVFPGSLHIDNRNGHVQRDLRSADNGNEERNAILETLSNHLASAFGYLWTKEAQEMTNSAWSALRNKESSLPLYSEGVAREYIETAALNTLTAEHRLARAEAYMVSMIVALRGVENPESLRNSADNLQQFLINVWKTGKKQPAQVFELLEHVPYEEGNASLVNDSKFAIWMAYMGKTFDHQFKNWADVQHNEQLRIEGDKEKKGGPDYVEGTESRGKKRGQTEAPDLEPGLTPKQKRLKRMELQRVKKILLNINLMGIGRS

Row | binding [2] | Substance | binding [1]
1 | binds weakly | PARP2:RFP (Arabidopsis thaliana Poly(ADP-Ribose) Polymerase 2, full length, fused to RFP) (from UniProt Q11207 1-637) | binds weakly
2 | – | RFP:HaRxL106 (from UniProt M4C4U1 25-285) | binds

Source: article PMC6230994
